Results are given in words; binding and its absence hold for the method and conditions named. Binding seen in cells or lysates may run through a third protein. Some binding calls cover weakened binding; strength is not graded here.
Biological target: ErbB2 (overexpressed in cells, lysate) (UniProt P04626)
Experiment: GST pull-down from lysates of cells overexpressing ErbB2, Western blot with anti-ErbB2

B1: GST fusion protein carrying the three PDZ domains of Tjp1 (GST-Tjp1 PDZ1-3) (other, human, UniProt Q07157 1-503, looked up)
chain: MSARAAAAKSTAMEETAIWEQHTVTLHRAPGFGFGIAISGGRDNPHFQSGETSIVISDVLKGGPAEGQLQENDRVAMVNGVSMDNVEHAFAVQQLRKSGKNAKITIRRKKKVQIPVSRPDPEPVSDNEEDSYDEEIHDPRSGRSGVVNRRSEKIWPRDRSASRERSLSPRSDRRSVASSQPAKPTKVTLVKSRKNEEYGLRLASHIFVKEISQDSLAARDGNIQEGDVVLKINGTVTENMSLTDAKTLIERSKGKLKMVVQRDERATLLNVPDLSDSIHSANASERDDISEIQSLASDHSGRSHDRPPRRSRSRSPDQRSEPSDHSRHSPQQPSNGSLRSRDEERISKPGAVSTPVKHADDHTPKTVEEVTVERNEKQTPSLPEPKPVYAQVGQPDVDLPVSPSDGVLPNSTHEDGILRPSMKLVKFRKGDSVGLRLAGGNDVGIFVAGVLEDSPAAKEGLEEGDQILRVNNVDFTNIIREEAVLFLLDLPKGEEVTILAQKK
notes: domain: PDZ 1-3 domains; also called GST ZO-1PDZ1-3 domain fusion protein; ZO-1 (Tjp1) PDZ domains; not shown: glutathione S-transferase (GST) tag encoded by the pGEX 4T-1 vector
binding: binds

Source: US20190256846A1 (AGENCY FOR SCIENCE TECHNOLOGY AND RESEARCH, published 2019)
